Here are results for two molecules from PubChem BioAssay AID1259423 (Fisher Drug Discovery Resource Center, 2018).

This is one part of the list. Some tests of the compounds listed are not included; inactive here does not mean inactive elsewhere.

In the assay the test system is Aedes aegypti neuropeptide Y-like receptor 7 (NPYLR7). The experiment in a line: agonists of mosquito NPYLR7 receptor, primary screen, cell-based, Aedes aegypti, calcium fluorescence, mosquito biting behavior (AID 1259423).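 Note: 0% = vehicle and 100% = reference agonist at the receptor.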 The following applies: HEK293T NPYLR7/Galpha15, GCaMP6s calcium fluorescence; measured here: Max-Min RFU normalised activation; at 10 µM; stronger effect = higher value.
`N#CC(C#N)=Cc1ccc(Br)cc1`: the activation was 11.6%. The value for `CN(C)C1(CNC(=O)c2cc(Br)c(Br)s2)CCCCC1` was 9.2%.
